According to PMC3846882:
These are yes or no findings as the source states them, for the method shown. In cells and extracts the contact can be indirect. These calls come from enrichment with a bait or labelling near it, and not all partners need be listed. For some assays here: Where a sequence is shown, tags or fusion partners need not be part of it.

Sequences of proteins named here, by UniProt entry; tags and fusion partners are left off.
UniProt Q15046: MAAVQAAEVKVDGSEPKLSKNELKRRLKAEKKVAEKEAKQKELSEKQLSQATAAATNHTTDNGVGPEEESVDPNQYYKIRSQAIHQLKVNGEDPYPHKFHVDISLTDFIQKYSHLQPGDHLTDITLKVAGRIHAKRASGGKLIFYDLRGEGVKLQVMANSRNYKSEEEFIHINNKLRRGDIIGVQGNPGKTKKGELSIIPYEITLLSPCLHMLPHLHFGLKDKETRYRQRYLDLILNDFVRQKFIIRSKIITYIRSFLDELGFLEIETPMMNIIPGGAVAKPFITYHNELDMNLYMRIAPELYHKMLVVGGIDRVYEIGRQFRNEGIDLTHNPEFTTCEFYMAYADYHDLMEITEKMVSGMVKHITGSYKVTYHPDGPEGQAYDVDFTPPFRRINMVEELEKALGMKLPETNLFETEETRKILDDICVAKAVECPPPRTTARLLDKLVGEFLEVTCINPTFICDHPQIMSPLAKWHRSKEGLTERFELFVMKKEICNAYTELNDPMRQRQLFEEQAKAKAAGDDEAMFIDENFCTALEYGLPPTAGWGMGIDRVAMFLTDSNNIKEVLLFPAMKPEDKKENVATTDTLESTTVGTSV
UniProt O95816: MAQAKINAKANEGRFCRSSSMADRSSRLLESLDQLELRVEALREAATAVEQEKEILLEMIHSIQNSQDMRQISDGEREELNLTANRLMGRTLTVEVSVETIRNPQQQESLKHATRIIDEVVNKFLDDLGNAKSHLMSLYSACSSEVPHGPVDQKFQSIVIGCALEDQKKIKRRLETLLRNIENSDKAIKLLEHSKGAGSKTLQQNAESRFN
UniProt P09493: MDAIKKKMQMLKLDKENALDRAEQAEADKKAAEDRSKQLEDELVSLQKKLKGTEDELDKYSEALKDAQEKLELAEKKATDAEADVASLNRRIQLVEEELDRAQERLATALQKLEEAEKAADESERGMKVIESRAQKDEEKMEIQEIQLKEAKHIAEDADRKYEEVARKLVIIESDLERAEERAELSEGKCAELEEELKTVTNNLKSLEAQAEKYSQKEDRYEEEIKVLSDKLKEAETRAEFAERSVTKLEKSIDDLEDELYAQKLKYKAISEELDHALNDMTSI
UniProt P42224: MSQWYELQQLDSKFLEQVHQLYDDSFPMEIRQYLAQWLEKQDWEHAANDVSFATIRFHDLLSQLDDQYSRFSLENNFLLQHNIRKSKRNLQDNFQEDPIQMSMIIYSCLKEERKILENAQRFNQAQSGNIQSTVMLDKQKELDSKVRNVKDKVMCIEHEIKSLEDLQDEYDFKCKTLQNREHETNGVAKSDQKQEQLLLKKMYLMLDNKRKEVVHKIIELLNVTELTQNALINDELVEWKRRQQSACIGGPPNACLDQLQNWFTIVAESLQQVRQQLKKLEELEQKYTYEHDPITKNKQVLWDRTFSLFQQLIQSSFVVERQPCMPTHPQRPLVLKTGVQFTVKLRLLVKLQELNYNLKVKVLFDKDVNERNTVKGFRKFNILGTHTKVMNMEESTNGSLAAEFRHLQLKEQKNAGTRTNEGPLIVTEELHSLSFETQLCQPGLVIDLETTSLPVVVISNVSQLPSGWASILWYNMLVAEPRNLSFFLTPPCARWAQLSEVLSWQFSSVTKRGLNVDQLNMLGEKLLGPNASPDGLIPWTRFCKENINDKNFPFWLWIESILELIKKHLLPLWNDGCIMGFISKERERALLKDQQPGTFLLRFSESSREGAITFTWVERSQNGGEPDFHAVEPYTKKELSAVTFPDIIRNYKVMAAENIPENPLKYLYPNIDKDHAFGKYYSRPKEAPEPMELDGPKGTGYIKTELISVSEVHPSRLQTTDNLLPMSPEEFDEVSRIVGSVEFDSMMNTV
UniProt Q13885: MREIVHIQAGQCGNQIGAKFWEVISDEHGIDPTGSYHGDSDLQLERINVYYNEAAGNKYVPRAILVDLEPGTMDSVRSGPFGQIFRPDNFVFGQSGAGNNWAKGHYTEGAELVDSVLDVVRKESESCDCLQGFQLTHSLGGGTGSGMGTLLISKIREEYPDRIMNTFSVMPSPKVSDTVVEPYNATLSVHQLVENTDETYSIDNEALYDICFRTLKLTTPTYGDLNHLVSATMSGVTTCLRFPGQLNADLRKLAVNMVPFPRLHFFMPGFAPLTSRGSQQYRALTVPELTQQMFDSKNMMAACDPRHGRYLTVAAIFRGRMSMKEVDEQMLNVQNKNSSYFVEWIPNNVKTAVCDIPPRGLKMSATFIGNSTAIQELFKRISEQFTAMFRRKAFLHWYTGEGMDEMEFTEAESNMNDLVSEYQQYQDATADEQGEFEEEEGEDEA
UniProt Q13509: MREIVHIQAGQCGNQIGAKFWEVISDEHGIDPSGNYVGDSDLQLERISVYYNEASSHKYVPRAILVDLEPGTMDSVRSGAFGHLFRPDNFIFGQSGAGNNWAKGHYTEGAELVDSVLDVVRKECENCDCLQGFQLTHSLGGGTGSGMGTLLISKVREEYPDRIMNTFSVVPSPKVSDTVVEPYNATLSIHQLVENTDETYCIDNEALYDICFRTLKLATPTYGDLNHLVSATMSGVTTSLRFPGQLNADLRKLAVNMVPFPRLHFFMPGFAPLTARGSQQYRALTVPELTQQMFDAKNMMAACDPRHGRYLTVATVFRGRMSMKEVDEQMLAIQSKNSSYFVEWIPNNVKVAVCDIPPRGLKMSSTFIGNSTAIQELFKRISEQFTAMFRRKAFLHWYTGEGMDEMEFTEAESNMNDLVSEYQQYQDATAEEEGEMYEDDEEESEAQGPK
UniProt P08238: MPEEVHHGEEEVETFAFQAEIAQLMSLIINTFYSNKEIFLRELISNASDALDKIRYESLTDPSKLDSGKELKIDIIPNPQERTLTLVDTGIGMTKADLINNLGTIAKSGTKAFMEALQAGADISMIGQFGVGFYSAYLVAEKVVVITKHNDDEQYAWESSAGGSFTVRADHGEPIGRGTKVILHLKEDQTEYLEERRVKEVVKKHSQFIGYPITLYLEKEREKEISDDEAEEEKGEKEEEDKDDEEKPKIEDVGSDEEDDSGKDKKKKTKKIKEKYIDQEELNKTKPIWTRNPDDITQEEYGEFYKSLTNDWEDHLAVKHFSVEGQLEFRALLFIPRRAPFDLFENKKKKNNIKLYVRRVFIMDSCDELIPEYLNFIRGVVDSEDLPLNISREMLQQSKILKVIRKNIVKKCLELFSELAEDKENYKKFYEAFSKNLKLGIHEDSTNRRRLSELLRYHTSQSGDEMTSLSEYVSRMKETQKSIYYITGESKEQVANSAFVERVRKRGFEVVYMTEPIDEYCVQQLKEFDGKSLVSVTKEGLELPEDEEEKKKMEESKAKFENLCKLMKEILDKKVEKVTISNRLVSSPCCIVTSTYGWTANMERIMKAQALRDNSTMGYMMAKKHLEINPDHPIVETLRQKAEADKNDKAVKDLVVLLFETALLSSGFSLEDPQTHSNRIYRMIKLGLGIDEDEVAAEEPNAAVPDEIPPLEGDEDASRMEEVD
UniProt P07814: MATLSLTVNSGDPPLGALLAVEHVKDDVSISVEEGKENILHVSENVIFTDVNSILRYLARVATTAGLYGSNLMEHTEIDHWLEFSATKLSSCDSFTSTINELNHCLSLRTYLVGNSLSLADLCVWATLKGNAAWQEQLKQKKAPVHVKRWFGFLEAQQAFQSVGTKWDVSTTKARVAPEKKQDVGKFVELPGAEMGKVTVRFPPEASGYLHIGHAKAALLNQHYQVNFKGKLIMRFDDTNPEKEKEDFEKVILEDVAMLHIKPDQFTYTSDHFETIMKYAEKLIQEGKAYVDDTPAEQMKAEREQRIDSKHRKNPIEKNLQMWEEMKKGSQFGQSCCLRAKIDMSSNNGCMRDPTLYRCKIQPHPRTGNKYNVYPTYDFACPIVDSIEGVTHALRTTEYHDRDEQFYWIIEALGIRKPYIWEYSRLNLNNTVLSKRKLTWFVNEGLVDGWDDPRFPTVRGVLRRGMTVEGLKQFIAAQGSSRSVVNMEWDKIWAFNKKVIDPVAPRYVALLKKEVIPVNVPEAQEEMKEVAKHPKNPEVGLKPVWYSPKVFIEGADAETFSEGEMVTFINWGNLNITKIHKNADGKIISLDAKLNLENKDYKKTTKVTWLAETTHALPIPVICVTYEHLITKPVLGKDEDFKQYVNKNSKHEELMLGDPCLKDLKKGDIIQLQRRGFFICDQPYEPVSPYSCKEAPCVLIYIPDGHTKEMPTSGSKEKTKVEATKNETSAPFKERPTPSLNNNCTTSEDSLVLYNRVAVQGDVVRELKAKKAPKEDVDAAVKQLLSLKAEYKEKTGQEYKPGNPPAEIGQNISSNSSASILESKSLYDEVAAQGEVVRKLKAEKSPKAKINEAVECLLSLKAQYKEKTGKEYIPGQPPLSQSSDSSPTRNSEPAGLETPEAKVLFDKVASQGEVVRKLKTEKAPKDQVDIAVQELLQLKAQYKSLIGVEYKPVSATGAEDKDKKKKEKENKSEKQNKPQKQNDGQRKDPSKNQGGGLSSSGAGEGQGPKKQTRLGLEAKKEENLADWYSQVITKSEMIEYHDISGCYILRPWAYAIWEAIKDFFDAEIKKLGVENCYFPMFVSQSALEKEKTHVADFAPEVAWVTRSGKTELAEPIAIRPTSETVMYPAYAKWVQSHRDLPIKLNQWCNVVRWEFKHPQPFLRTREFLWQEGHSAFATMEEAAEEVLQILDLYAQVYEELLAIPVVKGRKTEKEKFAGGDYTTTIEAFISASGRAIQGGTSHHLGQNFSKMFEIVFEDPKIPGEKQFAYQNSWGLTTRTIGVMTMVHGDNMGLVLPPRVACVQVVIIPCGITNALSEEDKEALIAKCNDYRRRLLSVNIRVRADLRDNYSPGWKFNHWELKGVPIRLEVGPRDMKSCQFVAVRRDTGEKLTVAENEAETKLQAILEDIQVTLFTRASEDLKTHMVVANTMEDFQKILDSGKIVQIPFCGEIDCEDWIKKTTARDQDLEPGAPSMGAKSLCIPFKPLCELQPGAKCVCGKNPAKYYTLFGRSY
UniProt P04350: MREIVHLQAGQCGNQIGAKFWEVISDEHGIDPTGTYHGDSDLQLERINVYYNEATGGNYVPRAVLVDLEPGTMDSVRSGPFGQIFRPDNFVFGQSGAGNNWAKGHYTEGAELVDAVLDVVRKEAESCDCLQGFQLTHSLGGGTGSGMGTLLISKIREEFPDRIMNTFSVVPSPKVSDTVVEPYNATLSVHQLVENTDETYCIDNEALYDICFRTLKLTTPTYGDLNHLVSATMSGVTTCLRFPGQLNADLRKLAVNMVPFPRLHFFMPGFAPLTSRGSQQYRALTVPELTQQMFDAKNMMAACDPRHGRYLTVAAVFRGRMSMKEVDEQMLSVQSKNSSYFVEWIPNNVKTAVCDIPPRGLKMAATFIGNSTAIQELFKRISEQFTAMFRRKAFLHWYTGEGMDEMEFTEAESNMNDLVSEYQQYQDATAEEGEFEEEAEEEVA
UniProt O00560: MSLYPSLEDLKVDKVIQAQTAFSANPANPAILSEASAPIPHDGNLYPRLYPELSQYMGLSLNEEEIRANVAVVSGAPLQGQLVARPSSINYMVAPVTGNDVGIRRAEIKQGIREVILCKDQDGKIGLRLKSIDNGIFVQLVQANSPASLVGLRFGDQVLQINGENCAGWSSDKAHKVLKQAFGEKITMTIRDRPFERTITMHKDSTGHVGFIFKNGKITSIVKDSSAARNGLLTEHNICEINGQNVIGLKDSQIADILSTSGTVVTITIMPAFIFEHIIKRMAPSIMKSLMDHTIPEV
UniProt Q9BUF5: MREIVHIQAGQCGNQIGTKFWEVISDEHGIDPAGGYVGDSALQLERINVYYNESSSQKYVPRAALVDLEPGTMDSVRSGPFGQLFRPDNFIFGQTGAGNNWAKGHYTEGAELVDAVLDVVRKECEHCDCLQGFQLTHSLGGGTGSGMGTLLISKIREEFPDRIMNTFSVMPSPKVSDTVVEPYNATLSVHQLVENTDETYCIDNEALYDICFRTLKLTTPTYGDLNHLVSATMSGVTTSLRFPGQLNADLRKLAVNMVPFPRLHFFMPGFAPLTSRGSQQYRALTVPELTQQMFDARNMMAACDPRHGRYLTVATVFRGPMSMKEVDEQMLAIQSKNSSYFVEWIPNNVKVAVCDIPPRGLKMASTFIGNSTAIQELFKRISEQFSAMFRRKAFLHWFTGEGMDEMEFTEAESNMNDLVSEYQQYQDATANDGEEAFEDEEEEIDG

Experiments:
Assay in all cases: affinity purification with mass spectrometry; S/FLAG/SBP-tagged bait transiently expressed in HEK 293T and HCT-8 cells; 2 mg lysate protein in NETN buffer (20 mM Tris-HCl pH 7.4, 1 mM EDTA, 150 mM NaCl, 0.5% Nonidet P-40) on streptavidin agarose, 2 h, 4 °C; eluted with biotin; in-gel digestion, LC-MS/MS; SAINT probability 0.9 or above against a mock vector with the tag only; three biological replicates
S/FLAG/SBP tagged AIMP2 = molecular target: T1, S/FLAG/SBP tagged AIMP2 (UniProt Q13155)
T1 sequence: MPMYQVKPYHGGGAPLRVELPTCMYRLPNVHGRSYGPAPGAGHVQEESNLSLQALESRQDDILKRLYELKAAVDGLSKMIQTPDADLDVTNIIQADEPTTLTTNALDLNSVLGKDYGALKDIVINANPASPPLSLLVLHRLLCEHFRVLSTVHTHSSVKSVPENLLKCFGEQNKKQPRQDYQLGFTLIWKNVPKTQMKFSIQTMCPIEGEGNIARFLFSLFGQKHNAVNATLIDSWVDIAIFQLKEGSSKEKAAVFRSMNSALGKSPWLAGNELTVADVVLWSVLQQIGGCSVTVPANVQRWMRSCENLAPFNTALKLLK

S/FLAG/SBP tagged KARS = S/FLAG/SBP tagged KARS (UniProt Q15046)
S/FLAG/SBP tagged AIMP1 = molecular target: T2, S/FLAG/SBP tagged AIMP1 (UniProt Q12904)
T2 sequence: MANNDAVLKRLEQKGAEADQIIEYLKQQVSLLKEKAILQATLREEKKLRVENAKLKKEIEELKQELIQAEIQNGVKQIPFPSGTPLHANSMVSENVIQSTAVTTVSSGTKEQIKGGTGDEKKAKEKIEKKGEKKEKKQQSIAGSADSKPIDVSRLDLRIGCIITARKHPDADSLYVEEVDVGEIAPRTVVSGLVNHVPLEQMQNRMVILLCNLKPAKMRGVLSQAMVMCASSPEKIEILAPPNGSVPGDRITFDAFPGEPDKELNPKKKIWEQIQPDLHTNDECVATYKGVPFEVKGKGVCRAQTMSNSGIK

Row | binding (S/FLAG/SBP tagged AIMP2) | binding (S/FLAG/SBP tagged KARS) | binding (S/FLAG/SBP tagged AIMP1) | Substance
1 | binds | – | – | TUBB2C (from UniProt P68371 1-445)
2 | – | binds | – | elongation factor 1-alpha 1 (from UniProt P68104 1-462)
3 | binds | – | – | BAG family molecular chaperone regulator 2 (from UniProt O95816 1-211)
4 | binds | – | – | Fanconi anemia complementation group I (from UniProt Q9NVI1 1-1328)
5 | – | binds | – | tropomyosin alpha-1 chain (from UniProt P09493 1-284)
6 | – | binds | – | signal transducers and activators of transcription 1 (from UniProt P42224 1-750)

Second part, the substance before the results:

Row | Substance | binding (S/FLAG/SBP tagged AIMP2) | binding (S/FLAG/SBP tagged KARS) | binding (S/FLAG/SBP tagged AIMP1)
7 | TUBB2A (from UniProt Q13885 1-445) | binds | – | –
8 | HSP90AA1 (from UniProt P07900 1-732) | binds | – | –
9 | TUBB3 (from UniProt Q13509 1-450) | binds | – | –
10 | DNAJA (human (endogenous in HEK 293T)) | binds | – | –
11 | TUBBP5 (human (endogenous in HEK 293T or HCT-8)) | binds | – | –
12 | HSP90AB1 (from UniProt P08238 1-724) | binds | – | –
13 | Bifunctional aminoacyl-tRNA synthetase (glutamyl-prolyl-tRNA synthetase) (from UniProt P07814 1-1512) (enzyme) | binds | binds | binds
14 | TUBB4 (from UniProt P04350 1-444) | binds | – | –
15 | ATP citrate lyase (from UniProt P53396 1-1101) (enzyme) | – | binds | –
16 | ATP1A (human (endogenous in HEK 293T)) | binds | – | –
17 | syntenin-1 (from UniProt O00560 1-298) | – | binds | –
18 | TUBB6 (from UniProt Q9BUF5 1-446) | binds | – | –
